Assay results as given in patent US7947715B2, “Isoxazoline compound and pesticide” (Nissan Chemical Industries, Ltd., priority 2006, dated 2011).
Some of these results come from one statement about several compounds together. At least one compound was matched to its structure with a doubt left.

Tested on: cabbage moth (Plutella xylostella)
Assay: Insecticidal test against cabbage moth (leaf dip)
Assay type: in vivo
Settings: second instar larva, after 6 days

Structure (SMILES)	insecticidal rate (rate of dead insects) (10 ppm (**))	other results
O=C(CNCC(F)(F)F)NCc1ccc(C2=NOC(c3cc(Cl)c(Cl)c(Cl)c3)(C(F)(F)F)C2)cc1Cl (stereo not drawn) [2-203]	–	insecticidal rate (rate of dead insects) (100 ppm (*)): ≥ 80%
N#CCNCC(=O)NCc1ccc(C2=NOC(c3cc(Cl)c(Cl)c(Cl)c3)(C(F)(F)F)C2)cc1Cl (stereo not drawn) [2-204]	≥ 80%	–
C#CCNCC(=O)NCc1ccc(C2=NOC(c3cc(Cl)c(Cl)c(Cl)c3)(C(F)(F)F)C2)cc1Cl (stereo not drawn) [2-205]	–	insecticidal rate (rate of dead insects) (100 ppm (*)): ≥ 80%
O=C(CN1CCCC1)NCc1ccc(C2=NOC(c3cc(Cl)c(Cl)c(Cl)c3)(C(F)(F)F)C2)cc1Cl (stereo not drawn) [2-206]	–	insecticidal rate (rate of dead insects) (100 ppm (*)): ≥ 80%
COC(=O)NCC(=O)NCc1ccc(C2=NOC(c3cc(Cl)c(Cl)c(Cl)c3)(C(F)(F)F)C2)cc1Cl (stereo not drawn) [2-207]	–	insecticidal rate (rate of dead insects) (100 ppm (*)): ≥ 80%
COC(=O)N(C)CC(=O)NCc1ccc(C2=NOC(c3cc(Cl)c(Cl)c(Cl)c3)(C(F)(F)F)C2)cc1Cl (stereo not drawn) [2-208]	≥ 80%	–
CCN(CC(=O)NCc1ccc(C2=NOC(c3cc(Cl)c(Cl)c(Cl)c3)(C(F)(F)F)C2)cc1Cl)C(=O)OC (stereo not drawn) [2-209]	–	insecticidal rate (rate of dead insects) (100 ppm (*)): ≥ 80%
COC(=O)N(CC#N)CC(=O)NCc1ccc(C2=NOC(c3cc(Cl)c(Cl)c(Cl)c3)(C(F)(F)F)C2)cc1Cl (stereo not drawn) [2-210]	≥ 80%	–
O=C(NCc1ccc(C2=NOC(c3cc(Cl)cc(Cl)c3)(C(F)(F)F)C2)cc1Cl)C1NCCS1 (stereo not drawn) [2-211]	–	insecticidal rate (rate of dead insects) (100 ppm (*)): ≥ 80%
N#CCC(=O)NCc1ccc(C2=NOC(c3cc(Cl)c(Cl)c(Cl)c3)(C(F)(F)F)C2)cc1Cl (stereo not drawn) [2-216]	≥ 80%	–
COC(=O)CCC(=O)NCc1ccc(C2=NOC(c3cc(Cl)c(Cl)c(Cl)c3)(C(F)(F)F)C2)cc1Cl (stereo not drawn) [2-217]	–	insecticidal rate (rate of dead insects) (500 ppm): ≥ 80%
CNC(=O)CC(=O)NCc1ccc(C2=NOC(c3cc(Cl)c(Cl)c(Cl)c3)(C(F)(F)F)C2)cc1Cl (stereo not drawn) [2-218]	≥ 80%	–
CCNC(=O)CC(=O)NCc1ccc(C2=NOC(c3cc(Cl)c(Cl)c(Cl)c3)(C(F)(F)F)C2)cc1Cl (stereo not drawn) [2-219]	≥ 80%	–
O=C(CC(=O)NCC1CC1)NCc1ccc(C2=NOC(c3cc(Cl)c(Cl)c(Cl)c3)(C(F)(F)F)C2)cc1Cl (stereo not drawn) [2-220]	≥ 80%	–
O=C(CC(=O)NCC(F)(F)F)NCc1ccc(C2=NOC(c3cc(Cl)cc(Cl)c3)(C(F)(F)F)C2)cc1Cl (stereo not drawn) [2-221]	–	insecticidal rate (rate of dead insects) (100 ppm (*)): ≥ 80%
O=C(CC(=O)N1CCCC1)NCc1ccc(C2=NOC(c3cc(Cl)c(Cl)c(Cl)c3)(C(F)(F)F)C2)cc1Cl (stereo not drawn) [2-222]	≥ 80%	–
C=CC(=O)NCc1ccc(C2=NOC(c3cc(Cl)c(Cl)c(Cl)c3)(C(F)(F)F)C2)cc1Cl (stereo not drawn) [2-223]	≥ 80%	–
C=CC(=O)NCc1ccc(C2=NOC(c3cc(Cl)c(Cl)c(Cl)c3)(C(F)(F)F)C2)cc1Br (stereo not drawn) [2-224]	≥ 80%	–
C=CCC(=O)NCc1ccc(C2=NOC(c3cc(Cl)c(Cl)c(Cl)c3)(C(F)(F)F)C2)cc1Cl (stereo not drawn) [2-225]	≥ 80%	–
CC=CC(=O)NCc1ccc(C2=NOC(c3cc(Cl)c(Cl)c(Cl)c3)(C(F)(F)F)C2)cc1Cl (stereo not drawn) [2-226]	≥ 80%	–
C=C(C)C(=O)NCc1ccc(C2=NOC(c3cc(Cl)c(Cl)c(Cl)c3)(C(F)(F)F)C2)cc1Cl (stereo not drawn) [2-227]	≥ 80%	–

Structure (SMILES)	insecticidal rate (rate of dead insects) (10 ppm (**))	other results
C=C(C(=O)NCc1ccc(C2=NOC(c3cc(Cl)c(Cl)c(Cl)c3)(C(F)(F)F)C2)cc1Cl)C(F)(F)F (stereo not drawn) [2-228]	≥ 80%	–
O=C(C=Cc1ccccc1)NCc1ccc(C2=NOC(c3cc(Cl)c(Cl)c(Cl)c3)(C(F)(F)F)C2)cc1Cl (stereo not drawn) [2-229]	–	insecticidal rate (rate of dead insects) (500 ppm): ≥ 80%
C#CC(=O)NCc1ccc(C2=NOC(c3cc(Cl)c(Cl)c(Cl)c3)(C(F)(F)F)C2)cc1Cl (stereo not drawn) [2-230]	–	insecticidal rate (rate of dead insects) (500 ppm): ≥ 80%
CC#CC(=O)NCc1ccc(C2=NOC(c3cc(Cl)c(Cl)c(Cl)c3)(C(F)(F)F)C2)cc1Cl (stereo not drawn) [2-231]	≥ 80%	–
C#CCCC(=O)NCc1ccc(C2=NOC(c3cc(Cl)c(Cl)c(Cl)c3)(C(F)(F)F)C2)cc1Cl (stereo not drawn) [2-232]	≥ 80%	–
C#CCCC(=O)NCc1ccc(C2=NOC(c3cc(Cl)c(Cl)c(Cl)c3)(C(F)(F)F)C2)cc1Br (stereo not drawn) [2-233]	≥ 80%	–
C#CCCC(=O)NCc1ccc(C2=NOC(c3cc(Cl)c(Cl)c(Cl)c3)(C(F)(F)F)C2)cc1[N+](=O)[O-] (stereo not drawn) [2-234]	–	insecticidal rate (rate of dead insects) (100 ppm (*)): ≥ 80%
C#CCCC(=O)NC(C)c1ccc(C2=NOC(c3cc(Cl)c(Cl)c(Cl)c3)(C(F)(F)F)C2)cc1 (stereo not drawn) [2-235]	≥ 80%	–
C#CCCC(=O)NC(C#N)c1ccc(C2=NOC(c3cc(Cl)c(Cl)c(Cl)c3)(C(F)(F)F)C2)cc1 (stereo not drawn) [2-236]	≥ 80%	–
CC(NC(=O)c1ccccc1)c1ccc(C2=NOC(c3cc(Cl)cc(Cl)c3)(C(F)(F)F)C2)cc1 (stereo not drawn) [2-243]	–	insecticidal rate (rate of dead insects) (100 ppm (*)): ≥ 80%
CC(NC(=O)c1ccccc1F)c1ccc(C2=NOC(c3cc(Cl)cc(Cl)c3)(C(F)(F)F)C2)cc1 (stereo not drawn) [2-244]	–	insecticidal rate (rate of dead insects) (500 ppm): ≥ 80%
CC(NC(=O)c1cccc(F)c1)c1ccc(C2=NOC(c3cc(Cl)cc(Cl)c3)(C(F)(F)F)C2)cc1 (stereo not drawn) [2-245]	–	insecticidal rate (rate of dead insects) (100 ppm (*)): ≥ 80%
O=C(NCc1ccc(C2=NOC(c3cc(Cl)c(Cl)c(Cl)c3)(C(F)(F)F)C2)cc1Cl)c1ccc(F)cc1 (stereo not drawn) [2-246]	–	insecticidal rate (rate of dead insects) (100 ppm (*)): ≥ 80%
O=C(NCc1ccc(C2=NOC(c3cc(Cl)c(Cl)c(Cl)c3)(C(F)(F)F)C2)cc1Br)c1ccc(F)cc1 (stereo not drawn) [2-247]	–	insecticidal rate (rate of dead insects) (500 ppm): ≥ 80%
CC(NC(=O)c1ccc(F)cc1)c1ccc(C2=NOC(c3cc(Cl)cc(Cl)c3)(C(F)(F)F)C2)cc1 (stereo not drawn) [2-248]	–	insecticidal rate (rate of dead insects) (500 ppm): ≥ 80%
O=C(NCc1ccc(C2=NOC(c3cc(Cl)c(Cl)c(Cl)c3)(C(F)(F)F)C2)cc1Cl)c1ccccc1Cl (stereo not drawn) [2-249]	≥ 80%	–
O=C(NCc1ccc(C2=NOC(c3cc(Cl)c(Cl)c(Cl)c3)(C(F)(F)F)C2)cc1Cl)c1ccccc1[N+](=O)[O-] (stereo not drawn) [2-263]	≥ 80%	–
O=C(NCc1ccc(C2=NOC(c3cc(Cl)c(Cl)c(Cl)c3)(C(F)(F)F)C2)cc1Cl)c1ccc([N+](=O)[O-])cc1 (stereo not drawn) [2-264]	≥ 80%	–
N#Cc1ccccc1C(=O)NCc1ccc(C2=NOC(c3cc(Cl)c(Cl)c(Cl)c3)(C(F)(F)F)C2)cc1Cl (stereo not drawn) [2-265]	–	insecticidal rate (rate of dead insects) (500 ppm): ≥ 80%
N#Cc1ccc(C(=O)NCc2ccc(C3=NOC(c4cc(Cl)c(Cl)c(Cl)c4)(C(F)(F)F)C3)cc2Cl)cc1 (stereo not drawn) [2-266]	≥ 80%	–
CC(NC(=O)c1ccc(C#N)cc1)c1ccc(C2=NOC(c3cc(Cl)c(Cl)c(Cl)c3)(C(F)(F)F)C2)cc1 (stereo not drawn) [2-267]	≥ 80%	–

Structure (SMILES)	insecticidal rate (rate of dead insects) (10 ppm (**))	other results
O=C(NCc1ccc(C2=NOC(c3cc(Cl)c(Cl)c(Cl)c3)(C(F)(F)F)C2)cc1Cl)c1ccc(F)cc1F (stereo not drawn) [2-268]	–	insecticidal rate (rate of dead insects) (100 ppm (*)): ≥ 80%
O=C(NCc1ccc(C2=NOC(c3cc(Cl)c(Cl)c(Cl)c3)(C(F)(F)F)C2)cc1Br)c1ccc(F)cc1F (stereo not drawn) [2-269]	≥ 80%	–
O=C(NCc1ccc(C2=NOC(c3cc(Cl)cc(Cl)c3)(C(F)(F)F)C2)cc1[N+](=O)[O-])c1ccc(F)cc1F (stereo not drawn) [2-270]	–	insecticidal rate (rate of dead insects) (100 ppm (*)): ≥ 80%
O=C(NCc1ccc(C2=NOC(c3cc(Cl)c(Cl)c(Cl)c3)(C(F)(F)F)C2)cc1[N+](=O)[O-])c1ccc(F)cc1F (stereo not drawn) [2-271]	–	insecticidal rate (rate of dead insects) (100 ppm (*)): ≥ 80%
CC(NC(=O)c1ccc(F)cc1F)c1ccc(C2=NOC(c3cc(Cl)cc(Cl)c3)(C(F)(F)F)C2)cc1 (stereo not drawn) [2-273]	≥ 80%	–
CC(NC(=O)c1ccc(F)cc1F)c1ccc(C2=NOC(c3cc(Cl)c(Cl)c(Cl)c3)(C(F)(F)F)C2)cc1 (stereo not drawn) [2-274]	≥ 80%	–
N#CC(NC(=O)c1ccc(F)cc1F)c1ccc(C2=NOC(c3cc(Cl)c(Cl)c(Cl)c3)(C(F)(F)F)C2)cc1 (stereo not drawn) [2-275]	–	insecticidal rate (rate of dead insects) (100 ppm (*)): ≥ 80%
O=C(NCc1ccc(C2=NOC(c3cc(Cl)cc(Cl)c3)(C(F)(F)F)C2)cc1Cl)c1c(F)cccc1F (stereo not drawn) [2-276]	≥ 80%	–
O=C(NCc1ccc(C2=NOC(c3cc(Cl)c(Cl)c(Cl)c3)(C(F)(F)F)C2)cc1Cl)c1c(F)cccc1F (stereo not drawn) [2-277]	≥ 80%	–
CC(NC(=O)c1c(F)cccc1F)c1ccc(C2=NOC(c3cc(Cl)cc(Cl)c3)(C(F)(F)F)C2)cc1 (stereo not drawn) [2-278]	≥ 80%	–
CC(NC(=O)c1c(F)cccc1F)c1ccc(C2=NOC(c3cc(Cl)c(Cl)c(Cl)c3)(C(F)(F)F)C2)cc1 (stereo not drawn) [2-279]	≥ 80%	–
O=C(NCc1ccc(C2=NOC(c3cc(Cl)c(Cl)c(Cl)c3)(C(F)(F)F)C2)cc1Cl)c1ccc(F)c(F)c1 (stereo not drawn) [2-280]	–	insecticidal rate (rate of dead insects) (100 ppm (*)): ≥ 80%
O=C(NCc1ccc(C2=NOC(c3cc(Cl)c(Cl)c(Cl)c3)(C(F)(F)F)C2)cc1Cl)c1ccc(F)cc1Cl (stereo not drawn) [2-281]	≥ 80%	–
CC(NC(=O)c1ccc(F)cc1Cl)c1ccc(C2=NOC(c3cc(Cl)cc(Cl)c3)(C(F)(F)F)C2)cc1 (stereo not drawn) [2-282]	≥ 80%	–
CC(NC(=O)c1ccc(F)cc1Cl)c1ccc(C2=NOC(c3cc(Cl)c(Cl)c(Cl)c3)(C(F)(F)F)C2)cc1 (stereo not drawn) [2-283]	≥ 80%	–
N#Cc1ccc(C(=O)NCc2ccc(C3=NOC(c4cc(Cl)c(Cl)c(Cl)c4)(C(F)(F)F)C3)cc2Cl)c(F)c1 (stereo not drawn) [2-284]	≥ 80%	–
CC(NC(=O)c1ccc(C#N)cc1F)c1ccc(C2=NOC(c3cc(Cl)cc(Cl)c3)(C(F)(F)F)C2)cc1 (stereo not drawn) [2-285]	≥ 80%	–
O=C(NCc1ccc(C2=NOC(c3cc(Cl)cc(Cl)c3)(C(F)(F)F)C2)cc1Cl)c1c(F)cc(F)cc1F (stereo not drawn) [2-286]	≥ 80%	–
O=C(NCc1ccc(C2=NOC(c3cc(C(F)(F)F)cc(C(F)(F)F)c3)(C(F)(F)F)C2)cc1Cl)c1c(F)cc(F)cc1F (stereo not drawn) [2-287]	≥ 80%	–
O=C(NCc1ccc(C2=NOC(c3cc(Cl)c(Cl)c(Cl)c3)(C(F)(F)F)C2)cc1Cl)c1c(F)cc(F)cc1F (stereo not drawn) [2-288]	–	insecticidal rate (rate of dead insects) (100 ppm (*)): ≥ 80%
O=C(NCc1ccc(C2=NOC(c3cc(Cl)c(Cl)c(Cl)c3)(C(F)(F)F)C2)cc1Br)c1c(F)cc(F)cc1F (stereo not drawn) [2-289]	≥ 80%	–
